Among the data in article PMC10133229 are binding values, retold here.

Chains of the proteins cited; added tags and fusions are not shown.
UniProt P35222: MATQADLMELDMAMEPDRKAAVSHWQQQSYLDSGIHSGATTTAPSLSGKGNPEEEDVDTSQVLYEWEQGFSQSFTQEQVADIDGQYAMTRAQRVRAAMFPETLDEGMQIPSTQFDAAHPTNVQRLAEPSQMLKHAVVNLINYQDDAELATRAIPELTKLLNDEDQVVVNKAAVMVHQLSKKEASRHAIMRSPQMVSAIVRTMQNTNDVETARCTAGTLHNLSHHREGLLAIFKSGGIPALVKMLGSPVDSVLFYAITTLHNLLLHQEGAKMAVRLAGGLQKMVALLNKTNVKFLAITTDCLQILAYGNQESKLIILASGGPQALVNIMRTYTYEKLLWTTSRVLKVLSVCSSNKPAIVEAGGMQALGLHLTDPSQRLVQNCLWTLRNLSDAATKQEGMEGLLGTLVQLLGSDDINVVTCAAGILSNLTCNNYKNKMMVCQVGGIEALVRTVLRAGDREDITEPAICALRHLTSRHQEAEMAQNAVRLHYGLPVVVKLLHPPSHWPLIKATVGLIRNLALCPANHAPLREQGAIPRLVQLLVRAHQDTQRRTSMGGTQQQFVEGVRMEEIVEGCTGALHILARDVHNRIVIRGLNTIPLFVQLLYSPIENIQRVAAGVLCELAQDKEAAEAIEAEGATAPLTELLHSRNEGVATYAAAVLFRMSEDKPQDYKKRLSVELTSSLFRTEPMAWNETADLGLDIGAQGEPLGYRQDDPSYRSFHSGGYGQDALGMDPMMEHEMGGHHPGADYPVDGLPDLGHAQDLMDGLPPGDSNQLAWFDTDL

This assay has as its target T1, Never in mitosis gene A (NIMA)-related kinase-8 (human (endogenous in MDA-MB-231)) (UniProt Q86SG6).
T1 sequence: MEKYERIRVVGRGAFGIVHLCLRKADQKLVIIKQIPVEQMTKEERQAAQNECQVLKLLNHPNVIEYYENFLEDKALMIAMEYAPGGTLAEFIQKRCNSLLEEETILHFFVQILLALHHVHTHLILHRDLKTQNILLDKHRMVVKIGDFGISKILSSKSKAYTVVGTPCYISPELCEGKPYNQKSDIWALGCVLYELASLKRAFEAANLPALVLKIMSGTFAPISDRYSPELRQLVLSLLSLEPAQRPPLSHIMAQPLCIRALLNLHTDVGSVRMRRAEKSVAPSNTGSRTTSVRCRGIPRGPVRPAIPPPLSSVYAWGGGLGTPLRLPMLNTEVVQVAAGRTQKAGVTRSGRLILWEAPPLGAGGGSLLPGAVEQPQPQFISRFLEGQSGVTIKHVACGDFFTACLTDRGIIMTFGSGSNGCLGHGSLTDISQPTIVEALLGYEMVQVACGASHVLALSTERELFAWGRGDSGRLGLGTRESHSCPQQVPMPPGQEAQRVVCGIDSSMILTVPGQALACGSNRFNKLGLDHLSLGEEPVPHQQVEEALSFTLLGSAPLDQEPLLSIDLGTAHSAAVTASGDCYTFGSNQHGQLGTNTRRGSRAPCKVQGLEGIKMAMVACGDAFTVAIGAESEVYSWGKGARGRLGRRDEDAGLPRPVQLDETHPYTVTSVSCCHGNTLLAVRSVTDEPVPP
Briefly: co-IP; MDA-MB-231 lysate (immunoprecipitation kit, Abcam; lysis buffer with protease inhibitor) treated with NEK8 antibody overnight at 4 °C, protein A/G sepharose 1 h, washed, eluted; β-catenin detected by western blot.

These are yes or no findings as the source states them, for the method shown. Binding seen in cells or lysates may run through a third protein. Some results given as binding are weak or reduced against the parent protein; the word gives no strength.

In the case of β-catenin (from UniProt P35222 1-781), the binding result is “binds”.
